According to the supplement of paper PMC6411743:
± gives the standard deviation of the averaged measurements. Only a part is listed here, and it is no random draw.

By UniProt entry, the sequences of proteins in these tests, tags left out. Where a name states a change or a piece, a line headed by the entry shows the natural chain unless it says otherwise.
UniProt Q00610: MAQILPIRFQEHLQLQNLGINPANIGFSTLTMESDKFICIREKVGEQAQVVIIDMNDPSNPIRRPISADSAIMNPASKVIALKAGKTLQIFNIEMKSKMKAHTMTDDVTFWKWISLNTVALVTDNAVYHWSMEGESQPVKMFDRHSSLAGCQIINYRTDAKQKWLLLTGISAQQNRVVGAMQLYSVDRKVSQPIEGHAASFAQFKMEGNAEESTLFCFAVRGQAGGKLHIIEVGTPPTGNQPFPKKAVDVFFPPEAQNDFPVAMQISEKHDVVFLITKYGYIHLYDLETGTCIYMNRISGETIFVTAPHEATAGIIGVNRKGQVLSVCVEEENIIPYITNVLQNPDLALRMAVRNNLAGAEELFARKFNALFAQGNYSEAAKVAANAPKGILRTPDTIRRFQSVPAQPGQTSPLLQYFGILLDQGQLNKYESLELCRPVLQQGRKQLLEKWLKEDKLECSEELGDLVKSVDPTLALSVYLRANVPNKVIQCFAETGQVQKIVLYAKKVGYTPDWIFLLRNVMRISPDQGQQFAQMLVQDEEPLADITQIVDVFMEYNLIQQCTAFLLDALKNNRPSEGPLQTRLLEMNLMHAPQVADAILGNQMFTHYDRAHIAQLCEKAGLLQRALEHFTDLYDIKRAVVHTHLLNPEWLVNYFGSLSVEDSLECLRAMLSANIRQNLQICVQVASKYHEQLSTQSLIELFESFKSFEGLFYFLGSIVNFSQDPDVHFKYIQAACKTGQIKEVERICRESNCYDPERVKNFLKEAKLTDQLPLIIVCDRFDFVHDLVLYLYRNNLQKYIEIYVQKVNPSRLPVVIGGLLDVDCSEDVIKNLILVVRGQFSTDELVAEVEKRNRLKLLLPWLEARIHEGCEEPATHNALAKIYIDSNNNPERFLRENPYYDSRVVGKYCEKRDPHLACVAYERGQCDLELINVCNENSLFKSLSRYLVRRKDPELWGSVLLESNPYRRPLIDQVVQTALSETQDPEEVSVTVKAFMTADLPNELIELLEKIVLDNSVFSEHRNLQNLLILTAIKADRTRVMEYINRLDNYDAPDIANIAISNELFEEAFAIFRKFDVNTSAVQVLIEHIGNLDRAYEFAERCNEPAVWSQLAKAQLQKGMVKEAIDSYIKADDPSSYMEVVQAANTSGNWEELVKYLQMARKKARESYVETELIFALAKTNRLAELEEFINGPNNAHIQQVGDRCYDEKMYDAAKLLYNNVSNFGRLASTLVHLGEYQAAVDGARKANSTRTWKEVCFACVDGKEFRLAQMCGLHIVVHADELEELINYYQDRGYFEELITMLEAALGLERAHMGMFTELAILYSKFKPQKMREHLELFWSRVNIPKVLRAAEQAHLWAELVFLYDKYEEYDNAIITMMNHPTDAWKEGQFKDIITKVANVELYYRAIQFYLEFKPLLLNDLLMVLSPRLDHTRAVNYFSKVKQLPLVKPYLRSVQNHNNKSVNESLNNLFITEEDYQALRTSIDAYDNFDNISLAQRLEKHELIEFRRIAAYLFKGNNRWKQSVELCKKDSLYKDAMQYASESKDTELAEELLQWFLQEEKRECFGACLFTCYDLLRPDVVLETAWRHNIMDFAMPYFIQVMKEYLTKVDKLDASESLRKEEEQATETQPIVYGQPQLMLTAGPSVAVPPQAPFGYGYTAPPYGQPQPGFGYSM
UniProt O75818: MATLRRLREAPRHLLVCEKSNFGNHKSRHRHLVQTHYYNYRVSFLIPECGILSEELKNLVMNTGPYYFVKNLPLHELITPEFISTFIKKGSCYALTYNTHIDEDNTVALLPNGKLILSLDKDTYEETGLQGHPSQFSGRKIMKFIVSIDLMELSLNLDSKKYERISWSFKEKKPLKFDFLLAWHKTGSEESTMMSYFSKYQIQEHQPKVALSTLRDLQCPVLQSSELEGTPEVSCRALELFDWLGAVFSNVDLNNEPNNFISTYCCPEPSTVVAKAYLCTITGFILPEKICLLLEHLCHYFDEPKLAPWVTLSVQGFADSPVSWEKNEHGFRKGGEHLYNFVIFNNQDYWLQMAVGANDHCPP
UniProt Q9Y240: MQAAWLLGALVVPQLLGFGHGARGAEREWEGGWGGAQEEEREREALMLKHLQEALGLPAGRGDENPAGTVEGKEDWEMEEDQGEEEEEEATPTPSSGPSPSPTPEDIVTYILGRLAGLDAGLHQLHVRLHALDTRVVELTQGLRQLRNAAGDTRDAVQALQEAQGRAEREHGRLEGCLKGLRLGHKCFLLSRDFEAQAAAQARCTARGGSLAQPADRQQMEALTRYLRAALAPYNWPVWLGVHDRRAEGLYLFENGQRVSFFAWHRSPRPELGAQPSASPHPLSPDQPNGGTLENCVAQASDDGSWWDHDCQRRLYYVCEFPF
UniProt Q9BVL4, whole entry: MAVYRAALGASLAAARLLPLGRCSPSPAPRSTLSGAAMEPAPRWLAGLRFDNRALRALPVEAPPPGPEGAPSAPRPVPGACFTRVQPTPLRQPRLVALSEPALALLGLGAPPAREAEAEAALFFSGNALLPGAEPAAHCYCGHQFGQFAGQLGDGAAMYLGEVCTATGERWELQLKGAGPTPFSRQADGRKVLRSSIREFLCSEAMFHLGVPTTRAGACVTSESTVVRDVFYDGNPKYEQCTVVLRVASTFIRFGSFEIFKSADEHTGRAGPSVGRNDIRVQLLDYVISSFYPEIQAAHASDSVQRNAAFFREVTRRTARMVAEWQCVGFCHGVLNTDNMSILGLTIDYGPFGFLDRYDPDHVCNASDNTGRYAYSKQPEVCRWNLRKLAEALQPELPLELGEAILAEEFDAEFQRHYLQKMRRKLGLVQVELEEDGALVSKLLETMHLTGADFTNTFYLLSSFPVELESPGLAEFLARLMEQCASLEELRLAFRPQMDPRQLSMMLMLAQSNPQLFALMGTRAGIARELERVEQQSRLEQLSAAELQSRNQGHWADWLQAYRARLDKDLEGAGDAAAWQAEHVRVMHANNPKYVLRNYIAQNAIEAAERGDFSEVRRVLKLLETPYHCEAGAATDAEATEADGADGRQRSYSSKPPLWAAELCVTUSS
UniProt Q9NXU5: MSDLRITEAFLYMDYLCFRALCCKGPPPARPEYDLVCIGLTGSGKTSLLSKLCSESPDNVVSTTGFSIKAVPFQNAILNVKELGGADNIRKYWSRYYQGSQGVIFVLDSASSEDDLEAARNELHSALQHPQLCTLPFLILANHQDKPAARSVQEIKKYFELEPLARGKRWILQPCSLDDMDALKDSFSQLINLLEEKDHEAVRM
UniProt P28370, whole entry: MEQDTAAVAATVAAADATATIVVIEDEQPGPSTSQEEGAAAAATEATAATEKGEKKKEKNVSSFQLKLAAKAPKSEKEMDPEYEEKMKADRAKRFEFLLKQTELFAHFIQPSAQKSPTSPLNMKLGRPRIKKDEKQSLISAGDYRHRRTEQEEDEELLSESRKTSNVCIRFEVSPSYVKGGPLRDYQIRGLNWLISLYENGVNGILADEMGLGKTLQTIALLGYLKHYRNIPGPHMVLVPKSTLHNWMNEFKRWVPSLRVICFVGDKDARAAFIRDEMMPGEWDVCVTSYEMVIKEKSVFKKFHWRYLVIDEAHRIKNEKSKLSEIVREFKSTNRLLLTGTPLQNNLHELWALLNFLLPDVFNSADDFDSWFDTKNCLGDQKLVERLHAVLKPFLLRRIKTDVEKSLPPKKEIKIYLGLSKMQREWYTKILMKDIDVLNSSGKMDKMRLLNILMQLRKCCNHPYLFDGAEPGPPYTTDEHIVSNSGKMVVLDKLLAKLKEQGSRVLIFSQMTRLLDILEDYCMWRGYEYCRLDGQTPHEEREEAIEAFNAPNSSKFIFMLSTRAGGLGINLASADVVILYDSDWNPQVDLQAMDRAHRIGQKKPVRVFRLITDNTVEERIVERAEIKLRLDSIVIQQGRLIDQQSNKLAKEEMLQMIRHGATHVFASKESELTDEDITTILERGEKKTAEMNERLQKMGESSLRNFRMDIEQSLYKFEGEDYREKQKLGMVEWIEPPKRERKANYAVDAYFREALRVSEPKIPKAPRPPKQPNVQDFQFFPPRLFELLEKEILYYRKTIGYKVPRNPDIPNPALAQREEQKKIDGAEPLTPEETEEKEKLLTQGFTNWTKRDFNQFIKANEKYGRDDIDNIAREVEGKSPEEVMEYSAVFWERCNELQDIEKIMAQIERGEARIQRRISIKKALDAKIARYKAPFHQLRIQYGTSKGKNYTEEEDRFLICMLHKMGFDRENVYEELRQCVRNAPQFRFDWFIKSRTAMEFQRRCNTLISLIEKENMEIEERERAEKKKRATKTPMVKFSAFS
UniProt O43847: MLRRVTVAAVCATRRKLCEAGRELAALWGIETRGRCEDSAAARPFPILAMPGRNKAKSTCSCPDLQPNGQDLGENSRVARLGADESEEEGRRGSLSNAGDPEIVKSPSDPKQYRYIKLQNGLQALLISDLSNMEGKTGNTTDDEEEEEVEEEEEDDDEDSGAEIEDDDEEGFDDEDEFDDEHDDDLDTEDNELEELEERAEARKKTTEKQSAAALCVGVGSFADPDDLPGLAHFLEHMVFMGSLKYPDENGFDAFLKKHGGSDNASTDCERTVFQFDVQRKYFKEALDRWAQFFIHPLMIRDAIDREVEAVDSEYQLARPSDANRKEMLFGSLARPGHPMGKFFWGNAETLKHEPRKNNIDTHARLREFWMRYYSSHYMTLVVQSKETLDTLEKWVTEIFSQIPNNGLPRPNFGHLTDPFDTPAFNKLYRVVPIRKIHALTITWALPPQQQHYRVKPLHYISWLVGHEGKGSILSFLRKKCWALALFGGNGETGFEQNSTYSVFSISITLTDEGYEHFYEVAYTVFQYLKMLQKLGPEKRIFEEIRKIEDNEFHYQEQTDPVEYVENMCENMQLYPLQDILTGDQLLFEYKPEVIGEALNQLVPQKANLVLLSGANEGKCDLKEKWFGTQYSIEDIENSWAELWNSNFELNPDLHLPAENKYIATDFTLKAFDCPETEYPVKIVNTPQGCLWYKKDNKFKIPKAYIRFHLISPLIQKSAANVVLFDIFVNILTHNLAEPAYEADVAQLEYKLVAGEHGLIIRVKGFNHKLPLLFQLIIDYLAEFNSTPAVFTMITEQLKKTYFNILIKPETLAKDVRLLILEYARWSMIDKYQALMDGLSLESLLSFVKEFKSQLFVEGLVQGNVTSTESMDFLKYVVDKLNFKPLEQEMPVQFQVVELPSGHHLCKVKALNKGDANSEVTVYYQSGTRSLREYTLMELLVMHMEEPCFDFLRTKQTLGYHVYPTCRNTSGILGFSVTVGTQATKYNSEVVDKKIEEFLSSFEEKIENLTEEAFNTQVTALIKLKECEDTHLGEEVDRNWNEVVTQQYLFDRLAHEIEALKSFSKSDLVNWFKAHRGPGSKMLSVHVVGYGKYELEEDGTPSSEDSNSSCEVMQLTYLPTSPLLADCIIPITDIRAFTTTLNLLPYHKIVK
UniProt O14579: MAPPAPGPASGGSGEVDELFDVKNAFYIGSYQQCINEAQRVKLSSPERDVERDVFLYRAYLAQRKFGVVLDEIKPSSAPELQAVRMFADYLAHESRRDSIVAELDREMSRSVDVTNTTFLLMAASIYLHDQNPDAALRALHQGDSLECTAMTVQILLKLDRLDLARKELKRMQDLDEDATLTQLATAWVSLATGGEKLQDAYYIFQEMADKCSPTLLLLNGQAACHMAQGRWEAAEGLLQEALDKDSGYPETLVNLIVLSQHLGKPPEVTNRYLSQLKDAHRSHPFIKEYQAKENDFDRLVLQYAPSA
UniProt O95872: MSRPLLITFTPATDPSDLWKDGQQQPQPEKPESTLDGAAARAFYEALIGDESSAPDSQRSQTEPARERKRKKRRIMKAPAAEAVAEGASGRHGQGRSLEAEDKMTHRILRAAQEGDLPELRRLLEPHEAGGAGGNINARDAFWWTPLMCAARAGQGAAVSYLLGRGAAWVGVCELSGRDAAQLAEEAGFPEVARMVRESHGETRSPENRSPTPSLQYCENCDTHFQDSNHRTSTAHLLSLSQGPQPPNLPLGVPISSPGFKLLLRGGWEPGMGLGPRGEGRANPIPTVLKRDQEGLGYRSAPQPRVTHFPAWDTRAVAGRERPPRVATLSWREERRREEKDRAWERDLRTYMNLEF
UniProt Q92504: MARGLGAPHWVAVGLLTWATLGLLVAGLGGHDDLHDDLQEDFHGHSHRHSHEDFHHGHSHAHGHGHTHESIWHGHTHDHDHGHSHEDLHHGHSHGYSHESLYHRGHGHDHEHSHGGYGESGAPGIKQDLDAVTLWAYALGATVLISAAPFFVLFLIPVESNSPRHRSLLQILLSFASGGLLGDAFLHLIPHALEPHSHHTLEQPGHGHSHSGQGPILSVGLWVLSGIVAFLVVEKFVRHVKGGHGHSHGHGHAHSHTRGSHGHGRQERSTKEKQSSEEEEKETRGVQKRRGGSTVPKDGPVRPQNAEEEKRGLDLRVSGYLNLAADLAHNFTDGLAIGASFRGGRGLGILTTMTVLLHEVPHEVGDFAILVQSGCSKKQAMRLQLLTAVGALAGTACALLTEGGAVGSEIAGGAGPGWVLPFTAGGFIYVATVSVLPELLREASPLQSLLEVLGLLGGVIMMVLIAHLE

Compound: Nc1ncnc2c1ncn2[C@@H]1O[C@H](COP(=O)(O)OP(=O)(O)OP(=O)(O)O)[C@@H](O)[C@H]1O [adenosine triphosphate]
Assay: NP40-soluble protein abundance relative to vehicle (solubility fold change) (ratio); higher = more soluble protein in presence of ATP
Method in brief: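 Jurkat crude lysate prepared with a Dounce homogeniser was treated at eight concentrations spanning 0.1 to 10 mM, 10 min at room temperature then 3 min at 37 °C. Solubilisation with 0.8% NP40 and benzonase and ultracentrifugation preceded TMT labelling of the supernatant for LC-MS/MS. Fold change against the detergent-processed vehicle was determined per replicate from vsn-normalised intensities, across three independent experiments.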

Target	NP40-soluble protein abundance (concentration: 1mM)	NP40-soluble protein abundance (concentration: 2mM)	NP40-soluble protein abundance (concentration: 4mM)	NP40-soluble protein abundance (concentration: 6mM)	NP40-soluble protein abundance (concentration: 8mM)	NP40-soluble protein abundance (concentration: 10mM)
A0A087WVQ6|Q00610 and related entries (UniProt Q00610)	1.15 ± 0.089	1.14 ± 0.088	1.14 ± 0.071	1.11 ± 0.12	1.19 ± 0.062	1.15 ± 0.066
A0A087X1N3|O75818 and related entries (UniProt O75818)	1.12 ± 0.085	1.06 ± 0.052	1.08 ± 0.039	1.07 ± 0.026	1.15 ± 0.037	1.14 ± 0.042
A0A0A6YY95|Q9Y240 (UniProt Q9Y240)	0.973 ± 0.037	1.02 ± 0.051	1.06 ± 0.054	1.04 ± 0.072	1.01 ± 0.03	1.05 ± 0.027
A0A0A0MRI1|Q8IXQ4 (UniProt Q8IXQ4)	0.964 ± 0.081	0.954 ± 0.05	0.9765 ± 0.008	1.01 ± 0.048	0.941 ± 0.019	0.951 ± 0.03
A0A087X0Q9|Q9BVL4 (UniProt Q9BVL4)	0.985 ± 0.047	0.994 ± 0.025	0.985 ± 0.029	0.993 ± 0.061	1.02 ± 0.028	1.004 ± 0.0078
A0A087X211|Q8TCG1 (UniProt Q8TCG1)	1.03 ± 0.025	0.97 ± 0.024	0.958 ± 0.012	0.993 ± 0.016	0.9395 ± 0.006	0.944 ± 0.017
A0A087WUW9|Q9NXU5 (UniProt Q9NXU5)	0.936 ± 0.098	1.016 ± 0.0069	0.996 ± 0.043	0.95 ± 0.075	0.978 ± 0.043	0.958 ± 0.025
A0A0A0MRP6|B7ZLQ5 and related entries (UniProt P28370)	1.11 ± 0.038	1.13 ± 0.027	1.12 ± 0.078	1.19 ± 0.042	1.16 ± 0.066	1.18 ± 0.043
A0A087WYK8|B1AKJ5 and related entries (UniProt O43847)	1.01 ± 0.046	0.997 ± 0.061	0.973 ± 0.042	0.961 ± 0.077	0.992 ± 0.029	0.969 ± 0.05
A0A087WZX0|Q86UU0 and related entries (UniProt Q86UU0)	0.995 ± 0.013	0.99 ± 0.072	0.985 ± 0.076	0.9883 ± 0.009	0.917 ± 0.13	0.923 ± 0.12
A0A087X1A8|D3VVH9 and related entries (UniProt P54252)	0.968 ± 0.071	0.991 ± 0.015	0.949 ± 0.033	1 ± 0.036	0.95 ± 0.018	0.951 ± 0.018
A0A0D9SF54|A0A0D9SGF6|Q13813 and related entries (UniProt Q13813)	0.834 ± 0.022	0.898 ± 0.053	0.898 ± 0.017	1.05 ± 0.077	0.998 ± 0.038	1.09 ± 0.051
A0A087X0I4|M0QXB4 and related entries (UniProt O14579)	1 ± 0.034	0.9982 ± 0.0093	1 ± 0.024	0.979 ± 0.027	0.999 ± 0.029	0.979 ± 0.034
A0A0A0MSL4|A0A0G2JHL1|A0A0G2JJ73|A0A0G2JK30|A0A0G2JK37|A0A0G2JKD0|F6QYZ9 and related entries (UniProt O95872)	0.974 ± 0.13	1.01 ± 0.051	0.907 ± 0.15	0.903 ± 0.1	0.933 ± 0.065	0.92 ± 0.13
A0A087WTX2|Q92504 (UniProt Q92504)	0.902 ± 0.043	0.902 ± 0.051	0.893 ± 0.07	0.939 ± 0.018	0.909 ± 0.038	0.916 ± 0.019

Reformatted in CSV form: part of the list above.
Target,NP40-soluble protein abundance (concentration: 1mM),NP40-soluble protein abundance (concentration: 2mM),NP40-soluble protein abundance (concentration: 4mM),NP40-soluble protein abundance (concentration: 6mM),NP40-soluble protein abundance (concentration: 8mM),NP40-soluble protein abundance (concentration: 10mM)
A0A087X1N3|O75818 and related entries (UniProt O75818),1.12 ± 0.085,1.06 ± 0.052,1.08 ± 0.039,1.07 ± 0.026,1.15 ± 0.037,1.14 ± 0.042
A0A087X0Q9|Q9BVL4 (UniProt Q9BVL4),0.985 ± 0.047,0.994 ± 0.025,0.985 ± 0.029,0.993 ± 0.061,1.02 ± 0.028,1.004 ± 0.0078
